Measured values reported in article PMC12493207, “Annexin A2 interferes with complement regulation within the glomerulus” (The Journal of Biological Chemistry, 2025).

Protein sequences, listed by entry. Tags and fused reporters are not part of them. Lines headed by an entry give the natural chain unless they say otherwise; changes in a name come on top.
UniProt P06909: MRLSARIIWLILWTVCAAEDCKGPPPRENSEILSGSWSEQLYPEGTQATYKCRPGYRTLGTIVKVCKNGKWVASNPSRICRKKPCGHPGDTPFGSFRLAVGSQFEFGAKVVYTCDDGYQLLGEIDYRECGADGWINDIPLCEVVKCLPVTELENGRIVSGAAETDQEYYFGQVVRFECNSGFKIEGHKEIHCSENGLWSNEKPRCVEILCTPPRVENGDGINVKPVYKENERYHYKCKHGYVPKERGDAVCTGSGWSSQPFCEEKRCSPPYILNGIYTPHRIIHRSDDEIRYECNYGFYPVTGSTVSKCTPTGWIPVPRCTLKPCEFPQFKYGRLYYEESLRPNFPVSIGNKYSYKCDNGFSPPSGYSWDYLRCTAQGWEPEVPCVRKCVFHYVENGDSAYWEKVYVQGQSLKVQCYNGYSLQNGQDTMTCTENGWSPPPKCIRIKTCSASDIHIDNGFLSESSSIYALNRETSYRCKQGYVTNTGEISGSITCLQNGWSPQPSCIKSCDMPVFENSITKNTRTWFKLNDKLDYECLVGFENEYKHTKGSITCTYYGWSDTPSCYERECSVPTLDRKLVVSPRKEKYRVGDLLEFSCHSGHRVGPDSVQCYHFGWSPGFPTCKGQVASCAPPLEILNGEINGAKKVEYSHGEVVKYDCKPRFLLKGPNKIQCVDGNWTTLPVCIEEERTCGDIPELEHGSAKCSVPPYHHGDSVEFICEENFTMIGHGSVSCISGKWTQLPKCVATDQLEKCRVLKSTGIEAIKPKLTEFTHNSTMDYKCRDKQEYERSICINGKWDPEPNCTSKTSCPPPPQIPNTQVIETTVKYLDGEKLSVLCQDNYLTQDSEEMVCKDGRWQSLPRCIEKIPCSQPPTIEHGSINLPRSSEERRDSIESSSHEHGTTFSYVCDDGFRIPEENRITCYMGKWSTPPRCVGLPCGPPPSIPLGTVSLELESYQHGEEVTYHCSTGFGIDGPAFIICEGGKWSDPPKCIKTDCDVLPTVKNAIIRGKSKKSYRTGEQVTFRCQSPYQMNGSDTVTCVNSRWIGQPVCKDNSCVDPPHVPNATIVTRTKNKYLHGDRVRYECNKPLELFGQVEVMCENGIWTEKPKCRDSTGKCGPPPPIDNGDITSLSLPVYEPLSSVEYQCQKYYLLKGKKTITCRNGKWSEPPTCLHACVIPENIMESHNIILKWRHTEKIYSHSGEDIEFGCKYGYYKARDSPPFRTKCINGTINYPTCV
UniProt P08603: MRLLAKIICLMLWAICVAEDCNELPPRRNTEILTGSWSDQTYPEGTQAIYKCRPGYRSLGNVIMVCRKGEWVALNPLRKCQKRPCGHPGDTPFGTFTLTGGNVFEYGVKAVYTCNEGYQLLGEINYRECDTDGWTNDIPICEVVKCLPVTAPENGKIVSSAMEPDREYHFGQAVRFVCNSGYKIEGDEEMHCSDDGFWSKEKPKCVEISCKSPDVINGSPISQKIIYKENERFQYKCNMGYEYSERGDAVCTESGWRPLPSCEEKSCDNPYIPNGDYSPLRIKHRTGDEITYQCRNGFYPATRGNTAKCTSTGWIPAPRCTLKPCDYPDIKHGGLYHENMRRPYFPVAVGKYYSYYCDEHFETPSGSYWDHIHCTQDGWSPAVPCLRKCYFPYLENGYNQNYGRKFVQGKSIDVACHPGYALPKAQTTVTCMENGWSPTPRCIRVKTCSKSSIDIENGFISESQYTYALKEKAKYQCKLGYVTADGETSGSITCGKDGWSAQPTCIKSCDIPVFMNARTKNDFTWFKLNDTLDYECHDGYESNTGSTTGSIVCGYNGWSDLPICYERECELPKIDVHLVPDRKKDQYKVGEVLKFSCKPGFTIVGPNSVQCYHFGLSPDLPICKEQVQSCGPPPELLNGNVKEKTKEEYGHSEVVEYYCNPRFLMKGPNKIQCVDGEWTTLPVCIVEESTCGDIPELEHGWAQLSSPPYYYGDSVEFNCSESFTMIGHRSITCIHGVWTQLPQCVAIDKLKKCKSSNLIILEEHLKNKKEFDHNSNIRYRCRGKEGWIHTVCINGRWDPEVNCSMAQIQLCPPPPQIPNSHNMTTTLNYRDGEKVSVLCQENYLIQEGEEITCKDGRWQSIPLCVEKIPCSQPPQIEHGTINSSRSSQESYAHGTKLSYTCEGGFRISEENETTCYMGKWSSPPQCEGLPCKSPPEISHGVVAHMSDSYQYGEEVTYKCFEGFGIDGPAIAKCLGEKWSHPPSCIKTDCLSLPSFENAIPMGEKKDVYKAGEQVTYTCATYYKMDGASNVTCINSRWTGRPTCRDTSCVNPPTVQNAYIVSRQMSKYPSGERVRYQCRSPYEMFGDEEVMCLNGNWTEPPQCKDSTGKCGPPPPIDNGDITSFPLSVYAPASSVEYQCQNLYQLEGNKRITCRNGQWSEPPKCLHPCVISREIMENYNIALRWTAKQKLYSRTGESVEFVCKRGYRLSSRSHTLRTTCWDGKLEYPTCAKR

Experiments:
[1] = biological target: Factor H fragment SCRs 19-20 (murine) (UniProt P06909); assay: ELISA; Figure 1C: binding of rA2 to recombinant fragments of Factor H; both purified
[2] = biological target: Factor H fragment SCRs 6-8 (UniProt P08603); assay: as above

binding [1]: binds | binding [2]: binds
B1: recombinant annexin A2 (natural protein, mouse, UniProt P07356 1-339, looked up)
chain: MSTVHEILCKLSLEGDHSTPPSAYGSVKPYTNFDAERDALNIETAVKTKGVDEVTIVNILTNRSNVQRQDIAFAYQRRTKKELPSALKSALSGHLETVILGLLKTPAQYDASELKASMKGLGTDEDSLIEIICSRTNQELQEINRVYKEMYKTDLEKDIISDTSGDFRKLMVALAKGRRAEDGSVIDYELIDQDARELYDAGVKRKGTDVPKWISIMTERSVCHLQKVFERYKSYSPYDMLESIKKEVKGDLENAFLNLVQCIQNKPLYFADRLYDSMKGKGTRDKVLIRIMVSRSEVDMLKIRSEFKRKYGKSLYYYIQQDTKGDYQKALLYLCGGDD
notes: annexin A2, mouse; cDNA reverse transcribed from total mRNA of a C57BL/6 mouse kidney; also called rA2; AnxA2; source: CHO cells, transfected, purified from the supernatant (HiTrap His column)

Results are given in words; binding and its absence hold for the method and conditions named. Binding calls can cover weak binding; strength is not graded here.
